# Data as given in publication PMC8210596.
# The chains behind the UniProt entries cited, without tags or fusion partners. Residues count along the entry.
# UniProt Q8K2C6, residues 37-310: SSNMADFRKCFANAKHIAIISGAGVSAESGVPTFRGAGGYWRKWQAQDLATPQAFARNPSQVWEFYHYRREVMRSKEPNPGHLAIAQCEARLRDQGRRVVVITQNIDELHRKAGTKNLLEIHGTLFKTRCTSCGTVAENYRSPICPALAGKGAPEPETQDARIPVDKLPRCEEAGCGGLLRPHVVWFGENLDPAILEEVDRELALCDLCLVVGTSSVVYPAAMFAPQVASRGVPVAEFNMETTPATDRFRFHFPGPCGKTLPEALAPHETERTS
# UniProt Q62167: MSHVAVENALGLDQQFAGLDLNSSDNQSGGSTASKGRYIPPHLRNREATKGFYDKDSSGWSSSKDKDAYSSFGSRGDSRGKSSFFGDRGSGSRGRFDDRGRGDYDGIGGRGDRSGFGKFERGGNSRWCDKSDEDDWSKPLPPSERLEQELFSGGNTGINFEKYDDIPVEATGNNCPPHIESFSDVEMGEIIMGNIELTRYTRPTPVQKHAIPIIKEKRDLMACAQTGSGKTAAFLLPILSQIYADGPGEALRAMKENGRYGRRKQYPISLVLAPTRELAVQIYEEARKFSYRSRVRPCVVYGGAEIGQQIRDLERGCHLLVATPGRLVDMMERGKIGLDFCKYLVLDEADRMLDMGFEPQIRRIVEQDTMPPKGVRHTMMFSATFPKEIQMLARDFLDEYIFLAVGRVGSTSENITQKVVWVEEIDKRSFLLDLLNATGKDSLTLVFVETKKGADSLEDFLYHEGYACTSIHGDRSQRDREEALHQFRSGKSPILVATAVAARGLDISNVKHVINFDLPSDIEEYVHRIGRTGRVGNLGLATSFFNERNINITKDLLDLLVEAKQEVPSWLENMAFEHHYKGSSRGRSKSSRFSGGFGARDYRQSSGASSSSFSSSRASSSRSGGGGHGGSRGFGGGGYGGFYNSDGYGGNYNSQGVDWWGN
# These are yes or no findings as the source states them, for the method shown. Binding seen in cells or lysates may run through a third protein. Here binding means that the protein was enriched with, or labelled near, the bait; the list need not be complete.
# Target: Sirt5, stably overexpressed in RAW264.7 cells (mouse (cDNA of the murine cell line RAW264.7)) (UniProt Q8K2C6)
# Assay: affinity purification with mass spectrometry; co-immunoprecipitation and mass spectrometry from RAW264.7 cells stably overexpressing Sirt5, mock RAW264.7 cells as control
substance,measurement,value
"DDX3, endogenous in RAW264.7 cells (from UniProt Q62167 1-662)",binding,binds
